According to patent US4680304A, “Feed compositions containing 2-(α-pyridyl)-Δ^2 -heterocyclic compounds” (SmithKline Beckman Corporation, priority 1985, dated 1987):
At least one compound was matched to its structure with a doubt left.

System: fermentation in the digestive tract (swine ileal/cecal inoculum)
Test: In vitro swine procedure (fistula test; incubation of filtered ileal/cecal inoculum)
Set-up: species or system swine (Yorkshire barrow)
Conditions: 166.67 ppm, 5 hours at 37°

c1ccc(C2=NCCN2)nc1 [2-(2-Pyridyl)-imidazoline] was tested, and the “GLU (glucose)” value was 107 % of control values and the “LAC (L-lactic acid)” value was 93 % of control values.
